At least one compound was matched to its structure with a doubt left.
How the values were obtained:
CD4+ T cells [1] = assay: Surface marker (CD4, CD25, CXCR3) and intracellular FOXP3 analysis of expanded CD4+ T cells; format: cell-based; conditions: CD4+ T cells expanded with Rapamycin
Protocol: 1) Isolate CD4+ T cells from peripheral blood or leukopheresis products by the use of Dynal® CD4 Positive isolation kit, Dynal® CD4 Negative Isolation kit, Dynabeads® MyPure™ CD4 T cell kit, or CD4 Microbeads MACS®.
2) Stimulate 1.5×10^6 CD4+ T cells with anti-CD3/CD28 Dynabeads (3:1 bead: T cell ratio) in X-vivo medium with 1000 U/ml IL-4 (optional), 20 U/ml IL-2 and 1 μM final concentration of Rapamycin. Total medium volume should be 1.5 ml per 1.5×10^6 CD4+ T cells in a 24 well plate. The protocol can be scaled up.
3) On day 2, add a 10× concentrate that contains 10,000 U/ml IL-4 (optional) and […]. Add this in a volume that is 10% of the initial culture volume.
4) On day 4, add the cytokine concentrate similar to day 2.
5) On day 6, add the 10× cytokine concentrate again and take an aliquot to count the cells. […]
7) On day 14-15 the cells can be analyzed for surface marker expression and functional properties.
CD4+ T cells were isolated from peripheral blood by negative and/or positive isolation as described in Example 1. After expansion with IL-2, +/−IL-4, CD3/CD28 Dynabeads®, with or without Rapamycin the expanded cells were analyzed for various surface markers (CD4, CD25, CD62L, CRTh2, CCR4, CXCR3, CCR7) and for intracellular FOXP3 expression and cytokine secretion. Suppressive capacity was analyzed in standard functional assays as described below.

CD4+ T cells [2] = assay: Cytokine secretion of expanded CD4+ T cells; format: cell-based; conditions: CD4+ T cells expanded with Rapamycin

SMILES: CO[C@H]1C[C@@H]2CC[C@@H](C)[C@@](O)(O2)C(=O)C(=O)N2CCCC[C@H]2C(=O)O[C@H]([C@H](C)C[C@@H]2CC[C@@H](O)[C@H](OC)C2)CC(=O)[C@H](C)/C=C(\C)[C@@H](O)[C@@H](OC)C(=O)[C@H](C)C[C@H](C)/C=C/C=C/C=C/1C [Rapamycin]
- CD25 expression (CD4+ T cells [1]): high
- CXCR3 expression (CD4+ T cells [1]): low
- secretion of cytokines (CD4+ T cells [2]): low
